# According to patent publication US9771589B2, “Treating hepatitis virus infection by modulating microRNAs miR-130a, miR-130b, miR-204, or miR-1236” (priority 2013, dated 2017):
# At least one structure is not confirmed: it was looked up by name or label, or the drawing left a doubt.
# Tested on: endogenous miR-130a
# Assay: miR-130a level by stem-loop qPCR
# Type: cell-based, human
# Details: stable PPARγ-expressing HepG2 cell line
compound,measurement,value
CN(CCOc1ccc(CC2SC(=O)NC2=O)cc1)c1ccccn1 (stereo not shown) [Rosiglitazone],expression of miR-130a,further reduced
